Assay results as given in article PMC4381082.

T1: N-terminally FLAG-tagged SART3 (B0035.12) (C. elegans) (UniProt Q17430)
T1 sequence: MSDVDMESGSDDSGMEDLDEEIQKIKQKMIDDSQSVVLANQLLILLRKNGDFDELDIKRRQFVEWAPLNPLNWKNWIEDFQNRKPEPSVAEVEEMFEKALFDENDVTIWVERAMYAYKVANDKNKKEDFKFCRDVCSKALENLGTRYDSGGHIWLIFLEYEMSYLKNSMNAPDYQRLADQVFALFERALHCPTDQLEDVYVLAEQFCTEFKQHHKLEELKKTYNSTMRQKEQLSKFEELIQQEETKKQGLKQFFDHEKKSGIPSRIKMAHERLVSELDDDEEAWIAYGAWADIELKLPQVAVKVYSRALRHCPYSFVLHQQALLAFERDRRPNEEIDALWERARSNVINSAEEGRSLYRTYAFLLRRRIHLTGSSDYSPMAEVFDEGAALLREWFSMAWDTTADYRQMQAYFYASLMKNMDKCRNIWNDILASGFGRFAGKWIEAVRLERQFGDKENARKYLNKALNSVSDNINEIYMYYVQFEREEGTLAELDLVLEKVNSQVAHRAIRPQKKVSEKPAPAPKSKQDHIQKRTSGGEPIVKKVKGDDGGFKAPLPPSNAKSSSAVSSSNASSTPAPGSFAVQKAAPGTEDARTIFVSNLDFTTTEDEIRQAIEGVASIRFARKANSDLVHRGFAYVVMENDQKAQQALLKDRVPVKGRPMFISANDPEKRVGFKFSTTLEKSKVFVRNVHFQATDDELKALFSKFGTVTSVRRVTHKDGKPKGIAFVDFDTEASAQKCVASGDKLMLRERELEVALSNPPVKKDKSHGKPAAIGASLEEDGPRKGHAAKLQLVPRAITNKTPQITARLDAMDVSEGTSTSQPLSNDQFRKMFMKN

B1: SNR-6/Sm E (protein, UniProt Q9XTU6 1-90)
chain: MSTRKLNKVMVQPVNLIFRYLQNRTRVQIWLYEDVTHRLEGYIIGFDEFMNVVFDEAEEVNMKTKGRNKIGRILLKGDNITLIHAAQQEA

How the values were obtained:
[1] = target: T1, N-terminally FLAG-tagged SART3 (B0035.12) (C. elegans); experiment: affinity purification with mass spectrometry; anti-FLAG M2 magnetic beads on mixed stage worm lysate with FLAG/SART3 as bait; 30 mM HEPES/KOH pH 7.4, 100 mM KCl, 1.5 mM MgCl2, 0.1% Triton X-100; eluted with FLAG peptide; no RNase A
[2] = target: T1, N-terminally FLAG-tagged SART3 (B0035.12) (C. elegans); experiment: as above; remark: listed apart in the source

Molecule	binding [1]	binding [2]
Lsm1	no binding	
B1		no binding

Where two headings read alike, the source gives them in different places. Results are given in words; binding and its absence hold for the method and conditions named. In cells and extracts the contact can be indirect. Here binding means that the protein was enriched with, or labelled near, the bait; the list need not be complete. No binding means not detected with the bait. Sequences can lack the tags named with a protein.
